The values below come from article doi:10.1101/2023.01.07.523072.

No constants are given. Whether binding was seen depends on the method and setting. Binding can be weak; no strength is given. For part of these data: In cells and extracts the contact can be indirect. For part of these data: Sequences can lack the tags named with a protein.

To fix the notation:
B1: FLAG-tagged SP1 (enzyme, UniProt Q8L7N4 1-343)
chain: MIPWGGVTCCLSAAALYLLGRSSGRDAEVLETVTRVNQLKELAQLLELDSKILPFIVAVSGRVGSETPIKCEHSGIRGVIVEETAEQHFLKHNETGSWVQDSALMLSMSKEVPWFLDDGTSRVHVMGARGATGFALTVGSEVFEESGRSLVRGTLDYLQGLKMLGVKRIERVLPTGIPLTIVGEAVKDDIGEFRIQKPDRGPFYVSSKSLDQLISNLGKWSRLYKYASMGFTVLGVFLITKHVIDSVLERRRRRQLQKRVLDAAAKRAELESEGSNGTRESISDSTKKEDAVPDLCVICLEQEYNAVFVPCGHMCCCTACSSHLTSCPLCRRRIDLAVKTYRH
B2: FLAG-tagged Tom20-2 (receptor, UniProt P82873 1-210)
chain: MEFSTADFERLIMFEHARKNSEAQYKNDPLDSENLLKWGGALLELSQFQPIPEAKLMLNDAISKLEEALTINPGKHQALWCIANAYTAHAFYVHDPEEAKEHFDKATEYFQRAENEDPGNDTYRKSLDSSLKAPELHMQFMNQGMGQQILGGGGGGGGGGMASSNVSQSSKKKKRNTEFTYDVCGWIILACGIVAWVGMAKSLGPPPPAR
B3: FLAG-tagged Tom20-4 (receptor, UniProt P82805 1-187)
chain: MDMQNENERLMVFEHARKVAEATYVKNPLDAENLTRWAGALLELSQFQTEPKQMILEAILKLGEALVIDPKKHDALWLIGNAHLSFGFLSSDQTEASDNFEKASQFFQLAVEEQPESELYRKSLTLASKAPELHTGGTAGPSSNSAKTMKQKKTSEFKYDVFGWVILASYVVAWISFANSQTPVSRQ
B4: FLAG-tagged Toc34 (receptor, UniProt Q38906 1-313)
chain: MAALQTLREWIGIQQFPPATQSKLLEILGKYKEEDVSSLTVLVMGKGGVGKSSTVNSVIGEKAAAVSTFQSEGLRPTLVSRTRSGFTLNIIDTPGLIEGGYVNDQAINIIKRFLLNMTIDVLLYVDRLDVYRVDDLDRQVVGAITDAFGKEIWKKSALVLTHAQFSPPDGLNYNHFVSKRSNALLKVIQTGAQLKKQDLQGFSIPVILVENSGRCHKNESDEKILPCGTSWIPNLFNKITEISFNGNKAIHVDKKLVEGPNPNERGKKLIPLMFAFQYLLVMKPLVRAIKSDVSRESKPAWELRDSGLASRRS
B5: FLAG-tagged PAP2 (protein, UniProt Q9LMG7 20-656)
chain: ADSKATISISPNALNRSGDSVVIQWSGVDSPSDLDWLGLYSPPESPNDHFIGYKFLNESSTWKDGFGSISLPLTNLRSNYTFRIFRWSESEIDPKHKDHDQNPLPGTKHLLAESEQLTFGSGVGMPEQIHLSFTNMVNTMRVMFVAGDGEERFVRYGESKDLLGNSAAARGMRYEREHMCDSPANSTIGWRDPGWIFDTVMKNLNDGVRYYYQVGSDSKGWSEIHSYIARDVTAEETVAFMFGDMGCATPYTTFIRTQDESISTVKWILRDIEALGDKPAMISHIGDISYARGYSWVWDEFFAQVEPIASTVPYHVCIGNHEYDFSTQPWKPDWAASIYGNDGGGECGVPYSLKFNMPGNSSESTGMKAPPTRNLYYSYDMGTVHFVYISTETNFLKGGSQYEFIKRDLESVDRKKTPFVVVQGHRPMYTTSNEVRDTMIRQKMVEHLEPLFVKNNVTLALWGHVHRYERFCPISNNTCGTQWQGNPVHLVIGMAGQDWQPIWQPRPNHPDLPIFPQPEQSMYRTGEFGYTRLVANKEKLTVSFVGNHDGEVHDTVEMLASGVVISGSKESTKIPNLKTVPASATLMGKSESNALWYAKGAGLMVVGVLLGFIIGFFTRGKKSSSGNRWIPVKNEET
B6: FLAG-tagged RPN10 (protein, UniProt P55034 1-386)
chain: MVLEATMICIDNSEWMRNGDYSPSRLQAQTEAVNLLCGAKTQSNPENTVGILTMAGKGVRVLTTPTSDLGKILACMHGLDVGGEINLTAAIQIAQLALKHRQNKNQRQRIIVFAGSPIKYEKKALEIVGKRLKKNSVSLDIVNFGEDDDEEKPQKLEALLTAVNNNDGSHIVHVPSGANALSDVLLSTPVFTGDEGASGYVSAAAAAAAAGGDFDFGVDPNIDPELALALRVSMEEERARQEAAAKKAADEAGQKDKDGDTASASQETVARTTDKNAEPMDEDSALLDQAIAMSVGDVNMSEAADEDQDLALALQMSMSGEESSEATGAGNNLLGNQAFISSVLSSLPGVDPNDPAVKELLASLPDESKRTEEEESSSKKGEDEKK
B7: FLAG-tagged Toc33 (receptor, UniProt O23680 1-297)
chain: MGSLVREWVGFQQFPAATQEKLIEFFGKLKQKDMNSMTVLVLGKGGVGKSSTVNSLIGEQVVRVSPFQAEGLRPVMVSRTMGGFTINIIDTPGLVEAGYVNHQALELIKGFLVNRTIDVLLYVDRLDVYRVDELDKQVVIAITQTFGKEIWCKTLLVLTHAQFSPPDELSYETFSSKRSDSLLKTIRAGSKMRKQEFEDSAIAVVYAENSGRCSKNDKDEKALPNGEAWIPNLVKAITDVATNQRKAIHVDKKMVDGSYSDDKGKKLIPLIIGAQYLIVKMIQGAIRNDIKTSGKPL
B8: FLAG-tagged RPN6 (protein, UniProt Q9LP45 1-419)
chain: MVSYRATTETISLALEANSSEAITILYQVLEDPSSSPEAIRIKEQAITNLCDRLTEEKRGEDLRKLLTKLRPFFSLIPKAKTAKIVRGIIDAVAKIPGTTDLQITLCKEMVEWTRAEKRTFLRQRVEARLAALLMENKEYVEALALLSTLVKEVRRLDDKLLLVDIDLLESKLHFSLRNLPKAKAALTAARTAANAIYVPPAQQGTIDLQSGILHAEEKDYKTGYSYFFEAFESFNALGDPRAVFSLKYMLLCKIMVSQADDVAGIISSKAGLQYVGPDLDAMKAVADAHSKRSLKLFENALRDYKAQLEDDPIVHRHLSSLYDTLLEQNLCRLIEPFSRVEIAHIAELIGLPLDHVEKKLSQMILDKKFAGTLDQGAGCLIIFEDPKADAIYSATLETIANMGKVVDSLYVRSAKIMS
B9: Toc33 without the C-terminus (Toc33NC, a.a. 1-251), non-ubiquitinated (domain or fragment, UniProt O23680 1-251)
chain: MGSLVREWVGFQQFPAATQEKLIEFFGKLKQKDMNSMTVLVLGKGGVGKSSTVNSLIGEQVVRVSPFQAEGLRPVMVSRTMGGFTINIIDTPGLVEAGYVNHQALELIKGFLVNRTIDVLLYVDRLDVYRVDELDKQVVIAITQTFGKEIWCKTLLVLTHAQFSPPDELSYETFSSKRSDSLLKTIRAGSKMRKQEFEDSAIAVVYAENSGRCSKNDKDEKALPNGEAWIPNLVKAITDVATNQRKAIHVD
B10: ubiquitinated Toc33NC (a.a. 1-251) (domain or fragment, UniProt O23680 1-251)
chain: MGSLVREWVGFQQFPAATQEKLIEFFGKLKQKDMNSMTVLVLGKGGVGKSSTVNSLIGEQVVRVSPFQAEGLRPVMVSRTMGGFTINIIDTPGLVEAGYVNHQALELIKGFLVNRTIDVLLYVDRLDVYRVDELDKQVVIAITQTFGKEIWCKTLLVLTHAQFSPPDELSYETFSSKRSDSLLKTIRAGSKMRKQEFEDSAIAVVYAENSGRCSKNDKDEKALPNGEAWIPNLVKAITDVATNQRKAIHVD
modifications: ubiquitinated (in vitro, by SP1flex); sites not stated
B11: ubiquitinated Toc33FL (a.a. 1-297) (receptor, UniProt O23680 1-297)
chain: MGSLVREWVGFQQFPAATQEKLIEFFGKLKQKDMNSMTVLVLGKGGVGKSSTVNSLIGEQVVRVSPFQAEGLRPVMVSRTMGGFTINIIDTPGLVEAGYVNHQALELIKGFLVNRTIDVLLYVDRLDVYRVDELDKQVVIAITQTFGKEIWCKTLLVLTHAQFSPPDELSYETFSSKRSDSLLKTIRAGSKMRKQEFEDSAIAVVYAENSGRCSKNDKDEKALPNGEAWIPNLVKAITDVATNQRKAIHVDKKMVDGSYSDDKGKKLIPLIIGAQYLIVKMIQGAIRNDIKTSGKPL
modifications: ubiquitinated (in vitro, by SP1flex); sites not stated, in the receptor domain
B12: full length Toc33 (Toc33FL, a.a. 1-297), non-ubiquitinated (receptor, UniProt O23680 1-297)
chain: MGSLVREWVGFQQFPAATQEKLIEFFGKLKQKDMNSMTVLVLGKGGVGKSSTVNSLIGEQVVRVSPFQAEGLRPVMVSRTMGGFTINIIDTPGLVEAGYVNHQALELIKGFLVNRTIDVLLYVDRLDVYRVDELDKQVVIAITQTFGKEIWCKTLLVLTHAQFSPPDELSYETFSSKRSDSLLKTIRAGSKMRKQEFEDSAIAVVYAENSGRCSKNDKDEKALPNGEAWIPNLVKAITDVATNQRKAIHVDKKMVDGSYSDDKGKKLIPLIIGAQYLIVKMIQGAIRNDIKTSGKPL

The target of one test is GFP-TTOP (Arabidopsis thaliana). Nature of the test: co-IP.
In the case of B1, the binding entry is recorded as “binds”.

For the molecule B2, the binding result was “binds”.

In the case of B3, the binding result is given as “binds”. The same measure, in the same setting: the entry for B4 is “binds”; for B5 it is “binds”. The same measure, in the same setting: next, B6: “binds”; B7: “binds”; B8: “binds”.

Another test concerns the target GST-TTOP (Arabidopsis thaliana) (UniProt F4K1H0). The test can be described thus: pull-down.
On to B9, for which the binding result is recorded as “no binding”. The same measure, in the same setting: next, B10: “no binding”; B11: “binds”.

Regarding B12, the binding result is recorded as “binds”.
